{"sequences": {"note": "Chains of the proteins cited; added tags and fusions are not shown.", "UniProt Q0JBA9, entry or part of it": "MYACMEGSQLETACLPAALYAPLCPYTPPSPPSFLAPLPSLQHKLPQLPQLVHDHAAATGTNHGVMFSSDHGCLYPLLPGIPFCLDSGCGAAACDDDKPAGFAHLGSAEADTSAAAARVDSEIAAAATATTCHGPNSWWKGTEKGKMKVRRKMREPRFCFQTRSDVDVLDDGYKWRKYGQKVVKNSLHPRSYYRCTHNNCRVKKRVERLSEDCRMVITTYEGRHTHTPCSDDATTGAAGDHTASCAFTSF"}, "source": "paper PMC7819943", "about": "“Rice protein-binding microarrays: a tool to detect cis-acting elements near promoter regions in rice”", "note": "Some of the results follow.", "data": [{"target": "OsWRKY34 (Oryza sativa, UniProt Q0JBA9 1-250)", "assay": "protein-binding microarray (RPBM); PBS, 2% BSA, 51.3 ng/ul salmon testes DNA, 50 uM zinc acetate, 200 nM TF, 25 C, 1 h; high values mean tight binding", "conditions": "protein: recombinant; tags: N-terminal polyhistidine and DsRed monomer fusion (pET32a); label: CyDye5-dUTP incorporated in the synthesized complementary strand; 3' TTTTT single-stranded linker to array surface; dsDNA, one strand shown", "outline": "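An Axon 4000B scanner gave the binding signal as per-feature fluorescence intensity in arbitrary units. This followed washing of a custom Agilent array that had been incubated for 1 h at 25 °C with 200 nM protein in PBS, 2% BSA, salmon testes DNA and 50 µM zinc acetate. The proteins were transcription factors fused at the N-terminus to polyhistidine and DsRed, expressed in E. coli BL21-CodonPlus and purified on Ni–NTA.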", "values": [{"sequence": "GTTGTTTTCGCTTCAGGTTCAGTGCAGTCACGAGCGCGGACGGAGTCACCTAGTGCAG", "binding signal": "9250 fluorescence intensity (a.u.)"}, {"sequence": "GTCTGCGTGATCCGACAACCGCCTGTCCGCCTCGCCTCCGCGGAGTCACCTAGTGCAG", "binding signal": "9710 fluorescence intensity (a.u.)"}, {"sequence": "TTGTTGTTCCACATGATTTTGGGGCATGCTTTCACTATCACGGAGTCACCTAGTGCAG", "binding signal": "12300 fluorescence intensity (a.u.)"}, {"sequence": "GGCTGGCTGGGCTGGTGGGTACTGGGTTTCACTGATGAAACGGAGTCACCTAGTGCAG", "binding signal": "12300 fluorescence intensity (a.u.)"}, {"sequence": "CCCTTGTTGTGTCTGTCCCTTCCTTACATCACATCCATCCCGGAGTCACCTAGTGCAG", "binding signal": "8200 fluorescence intensity (a.u.)"}, {"sequence": "CTTCCATGGTTCGTTACTGTATCGAGTTCATGTATTAGTACGGAGTCACCTAGTGCAG", "binding signal": "8110 fluorescence intensity (a.u.)"}, {"sequence": "CTCTCTCAGATCCTACGTCCCAAATCGCTCCCACCTCACCCGGAGTCACCTAGTGCAG", "binding signal": "8080 fluorescence intensity (a.u.)"}, {"sequence": "GCTCCCCACCGCCACCTCGCCCGCTCGCTGTCCCCAGATGCGGAGTCACCTAGTGCAG", "binding signal": "9560 fluorescence intensity (a.u.)"}, {"sequence": "GGTTTGGAGGCGGAGGTGGCGCTGGAGGAGGCGGCGGTCTCGGAGTCACCTAGTGCAG", "binding signal": "9970 fluorescence intensity (a.u.)"}, {"sequence": "TCGTCCGTTGTGTTGTGTAATATATTAACATATAATTTTTCGGAGTCACCTAGTGCAG", "binding signal": "10100 fluorescence intensity (a.u.)"}, {"sequence": "AGGGAGGGAGGGAGGAGGAAGGAGGACTGACATGTGGGCCCGGAGTCACCTAGTGCAG", "binding signal": "9250 fluorescence intensity (a.u.)"}, {"sequence": "TTCCAACGAACCTCACGCGACCCTTCGTCCAGCCCAATACCGGAGTCACCTAGTGCAG", "binding signal": "8240 fluorescence intensity (a.u.)"}, {"sequence": "TCCGCCGCCGCCACCACCACCACCCACCCGGATCCCCACCCGGAGTCACCTAGTGCAG", "binding signal": "10200 fluorescence intensity (a.u.)"}, {"sequence": "GTATTGTTTGTCTGTTTGTATCTTTATTTCTCACTCTTGTCGGAGTCACCTAGTGCAG", "binding signal": "10600 fluorescence intensity (a.u.)"}, {"sequence": "GCTTATTCTGTTCGCATGTGGATCGTATCCCTTTTTTAAGCGGAGTCACCTAGTGCAG", "binding signal": "9600 fluorescence intensity (a.u.)"}, {"sequence": "CGACTGATTGGTTGGGGTCATGGTTGGAACAAAATTTCCTCGGAGTCACCTAGTGCAG", "binding signal": "13000 fluorescence intensity (a.u.)"}, {"sequence": "ATCGACCTCCATTTTAACGTACGACTCCCTAAGAGACCCGCGGAGTCACCTAGTGCAG", "binding signal": "9660 fluorescence intensity (a.u.)"}, {"sequence": "CACCACATCACGCCGCCGTTTCGTGCTCATCATCTCTATCCGGAGTCACCTAGTGCAG", "binding signal": "9700 fluorescence intensity (a.u.)"}, {"sequence": "AACTCATGCAGTTTTACCGTTCATTTTCTGAATCTTAATTCGGAGTCACCTAGTGCAG", "binding signal": "8650 fluorescence intensity (a.u.)"}, {"sequence": "CCGCCGCCTGCTCACCGTTCCGGCTTCCCTCGCACTCTTCCGGAGTCACCTAGTGCAG", "binding signal": "10400 fluorescence intensity (a.u.)"}, {"sequence": "GTAGTCATTCACGTGTTCCTCTTCTCCAGTACTAGTAGCTCGGAGTCACCTAGTGCAG", "binding signal": "9710 fluorescence intensity (a.u.)"}, {"sequence": "GTCCATGAAATTCATTCGCTTGATCAAACAGTGCTTTAATCGGAGTCACCTAGTGCAG", "binding signal": "8060 fluorescence intensity (a.u.)"}, {"sequence": "ACCCACACCCATCAGGACTCGGCCACTCGTGTCTCTCTCTCGGAGTCACCTAGTGCAG", "binding signal": "8730 fluorescence intensity (a.u.)"}, {"sequence": "TTGCTGGTGGGAGGAGGAGGAGGAGGTTGAGAGAGGTATGCGGAGTCACCTAGTGCAG", "binding signal": "8620 fluorescence intensity (a.u.)"}, {"sequence": "TCCCAGTAGCTCACTGCCTCTCTCGGTTTCTCGGTTCTCTCGGAGTCACCTAGTGCAG", "binding signal": "8200 fluorescence intensity (a.u.)"}, {"sequence": "GCCTGAGCGACGCGCCGACCGGCCGAAGGCTCCGCGTTGACGGAGTCACCTAGTGCAG", "binding signal": "8660 fluorescence intensity (a.u.)"}, {"sequence": "TCCATTTCCTCTCGTTCCTCTCTCTCTCTCTCTCTCTCTCCGGAGTCACCTAGTGCAG", "binding signal": "10300 fluorescence intensity (a.u.)"}, {"sequence": "AGTTTTTCTAGTCCTTCTTAATGCATGTGTCACCTTCTAACGGAGTCACCTAGTGCAG", "binding signal": "10300 fluorescence intensity (a.u.)"}, {"sequence": "TCTCCTACTCAGCATTGCGTCGTCGATGAAACCCTTTTTTCGGAGTCACCTAGTGCAG", "binding signal": "10700 fluorescence intensity (a.u.)"}, {"sequence": "GAAACGGAAGATTTCGCCATGTTTTGCCCGCCTCCGCCCACGGAGTCACCTAGTGCAG", "binding signal": "11200 fluorescence intensity (a.u.)"}, {"sequence": "CCACGTTTTCAGGCTGTTTGCAAATTTTCTCTCTCATCTACGGAGTCACCTAGTGCAG", "binding signal": "12200 fluorescence intensity (a.u.)"}, {"sequence": "TGCCTGATGCTTCTTTTTTTTTTTTACTAATTAGTTTCTTCGGAGTCACCTAGTGCAG", "binding signal": "8300 fluorescence intensity (a.u.)"}, {"sequence": "GCCTAGCCTATTCTCGCCGCCGTCTCCGCCGCCGCCGATGCGGAGTCACCTAGTGCAG", "binding signal": "8380 fluorescence intensity (a.u.)"}, {"sequence": "GGCTGCCTGTGCATGGGAGGCGATGTGAGGGTGGGCAGGGCGGAGTCACCTAGTGCAG", "binding signal": "9440 fluorescence intensity (a.u.)"}, {"sequence": "CCTTTTTGTTGGTCTCTGTTCTTGGGTTGGGTTTTCAGTCCGGAGTCACCTAGTGCAG", "binding signal": "20800 fluorescence intensity (a.u.)"}, {"sequence": "TTTTCACTTCCTATCGAGGTCATTTGTCCTGTTAACTTAACGGAGTCACCTAGTGCAG", "binding signal": "8070 fluorescence intensity (a.u.)"}, {"sequence": "CCTGTAATACTCTCTCCGTCTATAAATATTTGACGCCGTTCGGAGTCACCTAGTGCAG", "binding signal": "8560 fluorescence intensity (a.u.)"}, {"sequence": "TATCGCTTACTACACCCTTATGCTAAAATAAGTTTTGTTTCGGAGTCACCTAGTGCAG", "binding signal": "10400 fluorescence intensity (a.u.)"}, {"sequence": "TTCCAATTCGGATTTCTTGCTGTTGTTGTTGGGGTGTTCGCGGAGTCACCTAGTGCAG", "binding signal": "8770 fluorescence intensity (a.u.)"}, {"sequence": "ACTATATTTGTTTCGACAGGTTTTTAATAGTATTTGGCCGCGGAGTCACCTAGTGCAG", "binding signal": "9500 fluorescence intensity (a.u.)"}, {"sequence": "GCCGCTTGGACTGCACCTCTGCCGCTCGGGCCGCCAATCACGGAGTCACCTAGTGCAG", "binding signal": "8580 fluorescence intensity (a.u.)"}, {"sequence": "CGTGCGACTTTTTCCTCTTGTCCCCTCGACAAATCTATGCCGGAGTCACCTAGTGCAG", "binding signal": "8620 fluorescence intensity (a.u.)"}]}]}
